The list shows a part of the results. Shown are side measurements of this screen, not its main read-out; they come without a call. Compounds called inactive in the main read-out are mostly missing here. Words in brackets tell the shape of the fitted curve; partial curves, single points and poor fits give uncertain potencies.

The nature of the experiment: IkB Signaling. Particulars: ABC-DLBCL IkBa-CBG/CBR dual luciferase ratio (green luciferase fused to IkBa over red control in OCI-Ly3 lymphoma cells), 4 h; measured here: control luc red channel unless noted. An excerpt:
NIH Molecular Libraries Screening Centers Network [MLSCN]
NIH Chemical Genomics Center [NCGC]
Nuclear factor kappa-B (NF-kappa-B) plays an important role in normal B cell development and survival. Diffuse large B cell lymphoma (DLBCL) is the most commonly observed type of non-Hodgkin's lymphoma. Gene expression analysis has identified an activated B cell-like subtype of DLBCL (ABC-DLBCL) which expresses known NF-kappa-B target genes. […] However, targets upstream of IKK have been largely unexplored and so nodes upstream of IKK in the NF-kappa-B pathway remain untested due to the lack of chemical probes.
A cell-sensor assay for I-kappa-B-alpha stabilization was developed with NIH investigator Dr. R. Eric Davis in Dr. Louis M. Staudt's laboratory. The assay uses green (CBG68) and red (CBR) emitting beetle luciferases [Chroma-Glo(TM) developed by Promega Corp.] where the green luciferase is fused to I-kappa-B-alpha and the red luciferase is present in its native state. Both luciferase genes are stably present in the OCI-Ly3 human ABC DLBCL cell line, but their expression is under the control of tetracycline-inducible promoters. Following the addition of doxycycline to induce expression of the luciferases, the green luminescence in control cultures rises only slowly because the CBG fusion partner I-kappa-B-alpha is targeted by IKK activity for rapid degradation. In contrast, green luminescence rises rapidly in the presence of proteasome inhibitors or IKK inhibitors. The rise in red luminescence of CBR is not affected by proteasome or IKK inhibitors, and serves as normalization for cell number and nonspecific effects. Compounds were screened as a concentration-titration series that ranged from 57 uM to 0.7 nM.
NCGC Assay Protocol Summary:
Cells were seeded in 1536-well plates at 5000 cells/3ul in IMDM medium containing 0.5% FBS, w/o phenol red, L-glutamine, 25 mM HEPES, 3 mg/ml sodium bicarbonate. After centrifugation for 1 min. at 1000 rpm, 23 nl of compounds or DMSO were delivered to each well using a pin tool. Then 1ul 80ng/ml doxycycline was dispensed into white solid 1536-well plates and the plates were incubated at 37C/5% C02 in a cell incubator for 4 hrs. Then 4 ul Chroma-Glo luminescent substrate mix (Promega) was added to each well. The plate was incubated at R.T. for 10-15 min. The plates were measured on a ViewLux plate reader for green luminescence (540/20 nm filter) and red luminescence (618/8 nm filter). The green and red luminescent signals were corrected for red and green luminescence filter overlap using previously determined filter calibration constants (determined using the procedure outlined in the Promega Technical Manual). The %Activity was determined from the ratio of corrected green/red luminescent values. Green luminescent and ratio %Activity was determined by normalizing to the difference in signal between basal cells (0% Activity) and cells incubated with 10 uM of the proteasome inhibitor MG-132 (100% Activity). Red luminescent %Activity was normalized to the difference between red luminesence in basal cells (0%Activity) and zero luminescence (-100% Activity).
Concentration-response curves were fitted to the signals arising from the green luminescence (I-kappa-B-alpha-luciferase fusion; IkB-luc) and the red luminescence (unfused luciferase; luc) as well as the calculated ratio. The concentration-effect curves were then classified based on curve quality (r2), response magnitude and degree of measured activity. Compounds were then categorized based on their concentration-response curves for all three datasets (Ikb-luc, luc and ratio).
Keywords: IKK, I-kappa-B, IkB, IkBa, cytotoxicity, luminescence, MLSMR, MLSCN, NIH Roadmap, qHTS, NCGC
Broadly, the AC50 is the concentration at which the activity in the assay is half-maximal. Regarding `CC(=O)C1=C(c2ccc(Br)cc2)N(C(C)=O)n2c(nnc2C2CCCCC2)S1`, the AC50 is 12.6 µM [falling, partial curve, poor fit]. As to `COc1cccc(-n2cc(C(=O)OCc3ccc(Cl)cc3)c3ccccc3c2=O)c1`, the AC50 was 15.8 µM [rising, partial curve, poor fit]. Take `CCOc1ccc(-n2c(=O)c3c(C)c(C)sc3n(CC(=O)N3CCC(C)CC3)c2=O)cc1`: the AC50 is 25.1 µM [falling, partial curve]. As for `Cc1cccc(CNC(=O)c2ccc(C)c(-n3c(C)nc4cccnc43)c2)c1`, the half-maximal activity concentration (AC50) was 5.01 µM [falling, partial curve]. As to `COc1cc(NS(=O)(=O)c2ccc(C)cc2)c2ncccc2c1`, the AC50 was 2 µM [rising, partial curve] [measured here: IkB-luc green channel]. With `CCOC(=O)c1c(C)oc2nc(C)nc(NCc3cccc(Cl)c3)c12`, the AC50 was 39.8 µM [falling, single point]. Consider `O=C(c1cccc(Cl)c1)n1nc(-c2cccnc2)nc1NCc1ccccc1`, for which the AC50 was 15.8 µM [falling, single point]. Regarding `O=c1[nH]c(CN2CCc3ccccc32)nc2scc(-c3cccs3)c12`, the AC50 was 12.6 µM [falling, partial curve]. As for `Cc1cc(C(=O)COC(=O)c2n[nH]c3ccccc23)c(C)n1C`, the AC50 is 3.98 µM [falling, partial curve]. As for `COc1cc(OC)cc(C(=O)Nc2nnc3n2CCS3)c1`, the AC50 was 0.2 µM [falling, single point]. The value for `O=C(CN1CCC(n2nnc3cc(C(F)(F)F)ccc32)CC1)NCc1cccs1` was 39.8 µM [falling, single point]. On to `CCCc1cc(=O)[nH]c(SCc2cc(C(=O)OC)c(C)o2)n1`, for which the AC50 is 25.1 µM [falling, partial curve].

As for `CCc1ccc(NC(=O)c2c(C(=O)Nc3ccccc3)sc3nc(C)cc(=O)n23)cc1`, the AC50 is 12.6 µM [falling, partial curve]. In the case of `COc1cc(-c2noc(C3CC(=O)N(c4cc(C)ccc4C)C3)n2)cc(OC)c1OC` (stereo not drawn), the AC50 was 15.8 µM [falling, partial curve]. For `Cc1ccsc1CCN1C(=O)N(c2ccc(F)cc2)C(=O)C1CC(=O)Nc1ccccc1` (stereo not drawn), the AC50 is 39.8 µM [falling, single point]. On to `CCOc1ccc(NC(=O)Cn2cnc3c(oc4ccccc43)c2=O)cc1`, for which the AC50 is 20 µM [falling, single point].

For the compound `COc1ccc(-c2nnc(SCC(=O)Nc3cccc(Cl)c3C)nc2-c2ccc(OC)cc2)cc1`, the AC50 is 12.6 µM [falling, partial curve]. Turning to `Cc1cc(C)c(NC(=O)Cn2nnc(C(=O)Nc3ccc(F)cc3F)c2N)c(C)c1`, the AC50 was 6.31 µM [rising, single point]. To `Cc1ccc(CNC(=O)c2ccc3c(c2)nc2n3CCCC2)cc1` belongs 10 µM [falling, partial curve]; to `Cc1ccc(-c2noc(CCC(=O)N(C)c3ccccc3C)n2)cc1`, 12.6 µM [falling, partial curve].

On to `CCc1nn2c(=O)cc(COC(=O)C3CCCCC3)nc2s1`, for which the AC50 is 3.98 µM [rising, single point]. `CCn1cc(C(=O)NCc2ccccc2OC)c(=O)c2cc(S(=O)(=O)N3CCCCCC3)ccc21`: the AC50 is 10 µM [falling, partial curve]. To `CC(=O)Nc1ccc(C(=O)c2ccccc2)cc1` belongs 10 µM [falling, partial curve]. Take `CCOC(=O)c1cc(-c2ccccc2)n(CCCC(=O)Nc2ccc(C)cc2Cl)c1C`: the AC50 is 1 µM [rising, partial curve].

As for `COCC(C)n1c(C)cc(C(=O)COC(=O)c2oc3ccccc3c2C)c1C` (stereo not drawn), the AC50 was 15.8 µM [falling, partial curve]. As for `COc1ccc(CCNC(=O)c2oc3ccc(S(=O)(=O)N4CCOCC4)cc3c2C)cc1OC`, the AC50 is 20 µM [falling, single point].

For the compound `CC(=O)NCc1nc2cccnc2n1Cc1ccccc1`, the concentration at half-maximal activity (AC50) was 20 µM [rising, single point].

With `COc1ccc2nc(NC(=O)CSc3nnnn3C3CCCCC3)sc2c1`, the AC50 was 31.6 µM [falling, single point]. With `Cc1cccc(CCNC(=O)c2ccc3c(c2)nc2n3CCCCC2)c1`, the AC50 is 39.8 µM [falling, single point]. Take `Cc1nc2c(-c3ccc(F)cc3)c(C)nn2c(C)c1CCC(=O)N1CCN(c2ccc(F)cc2)CC1`: the AC50 is 25.1 µM [falling, partial curve]. With `COc1ccccc1N1CCN(C(=O)Cn2cnc3sc(C)c(S(=O)(=O)N4CCC(C)CC4)c3c2=O)CC1`, the AC50 was 0.0501 µM [falling, full curve]. In the case of `COc1ccc(Cl)cc1N(C)C(=O)Cc1noc2ccc(C)cc12`, the AC50 is 39.8 µM [falling, single point].

For `Cc1cccc(Cc2c(C)nc3nc(SCC(=O)NCc4ccc(F)cc4)nn3c2C)c1`, the AC50 was 20 µM [falling, partial curve]. Regarding `Cc1cc(C)c2c(=O)cc(C(=O)Nc3ccc(S(=O)(=O)Nc4onc(C)c4C)cc3)oc2c1`, the AC50 was 20 µM [falling, single point]. The value for `O=C(c1ccc(CS(=O)(=O)c2ccc(Br)cc2)o1)N1CCN(c2ccccn2)CC1` was 15.8 µM [falling, partial curve]; that for `CCC(C)NC(=O)c1ccc2c(c1)N=C(C)c1cc(C)ccc1S2` (stereo not drawn) was 1.58 µM [rising, partial curve]; that for `Cc1nn(-c2ccccc2)c2sc(C(=O)N3CCc4ccccc4C3)cc12` was 20 µM [falling, partial curve]. With `Cc1ccc(-n2c(C)cc(C(=O)COC(=O)c3c(C)noc3C)c2C)cc1`, the AC50 is 39.8 µM [falling, single point]. Regarding `CCN1C(=O)c2ccccc2Sc2ccc(NC(=O)Cc3ccc(OC)cc3)cc21`, the AC50 is 12.6 µM [falling, partial curve]. Regarding `CC(C)CC(=O)Nc1nnc2n1CCS2`, the AC50 was 0.126 µM [rising, full curve]. To `CCOc1ccc(NCc2cccn2-c2nnc(N3CCC(C(=O)NCc4cccc(OC)c4)CC3)s2)cc1` belongs 25.1 µM [falling, partial curve]; to `COc1ccc(-n2nnc(C(=O)Nc3ccccc3F)c2N)cc1`, 7.94 µM [falling, full curve]; to `COc1cccc(NC(=O)C(=O)NCCc2csc3nc(-c4ccccc4C)nn23)c1`, 12.6 µM [falling, partial curve].

Regarding `CCc1ccccc1N(c1nc(-c2ccc(OC)c(OC)c2)no1)c1nc(-c2ccc(OC)c(OC)c2)no1`, the AC50 is 3.16 µM [falling, partial curve, poor fit]. Take `Cn1c(=O)n(C)c2cc(NC(=O)c3cc4ccccc4o3)ccc21`: the half-maximal activity concentration (AC50) was 10 µM [falling, partial curve]. On to `COc1ccc(Nc2nc3ccccc3nc2NS(=O)(=O)c2ccc(Cl)cc2)cc1OC`, for which the AC50 was 1.26 µM [falling, full curve].

For the compound `CCOC(=O)c1cccc(NC(=O)CSc2nc3cc4ccccc4cc3[nH]2)c1`, the AC50 was 39.8 µM [rising, single point] [measured here: IkB-luc green channel].

Regarding `COc1ccccc1-c1cc(C(=O)NCCc2ccccc2)no1`, the AC50 is 20 µM [falling, partial curve]. For `CCC(C(=O)NCc1cccc(Br)c1)n1nc(C)c2c(C)n(-c3ccccc3)nc2c1=O` (stereo not drawn), the AC50 is 31.6 µM [falling, partial curve]. On to `O=S(=O)(Nc1cccc(F)c1)c1ccc2[nH]c3c(c2c1)CCCCC3`, for which the AC50 is 20 µM [falling, partial curve]. On to `CC(=O)Nc1ccc(NC(=O)c2cnn(-c3ccccc3)c2C2CCN(C(=O)OC(C)(C)C)CC2)cc1`, for which the AC50 was 10 µM [falling, partial curve].

As for `COC(=O)COc1ccc(S(=O)(=O)Nc2ccc3c(c2)OCCO3)cc1Cl`, the AC50 was 12.6 µM [falling, partial curve]. Take `COC(=O)c1c(SCC(=O)Nc2cccc(Cl)c2C)[nH]c2ccccc2c1=O`: the AC50 was 20 µM [falling, partial curve]. As to `CN(C(=O)c1c2c(nc3ccccc13)C(=O)N(C1CCCCC1)C2)c1ccc(F)cc1`, the AC50 is 10 µM [falling, partial curve]. The value for `Cc1ccc(S(=O)(=O)NCCc2csc3nc(-c4ccccc4F)nn23)cc1C` was 10 µM [falling, partial curve]; that for `COc1cccc(-c2nc(SCc3ccc(C)cc3)n3[nH]c(=O)cc3n2)c1` was 0.316 µM [rising, partial curve].

Turning to `CCOC(=O)c1c(C)oc2ncnc(N3CCN(c4ccccc4)CC3)c12`, the AC50 was 15.8 µM [falling, partial curve].

For `Cc1ccc(NC(=O)c2ccccc2F)nc1`, the AC50 was 39.8 µM [falling, single point]. Consider `CC(NC(=O)C1CCN(S(=O)(=O)c2ccc3c(c2)oc(=O)n3C)CC1)c1ccccc1` (stereo not drawn), for which the AC50 was 3.16 µM [falling, single point]. On to `COc1ccccc1NC1=NCC(=O)N1Cc1ccccc1`, for which the AC50 is 5.01 µM [falling, partial curve].

Consider `COc1ccccc1-c1nc(S(=O)(=O)c2ccccc2)c(N2CCC(C)CC2)o1`, for which the AC50 was 5.01 µM [falling, full curve].

Regarding `O=C(c1cc(-c2cccc(O)c2)on1)N1CCN(C(c2ccccc2)c2ccccc2)CC1`, the AC50 is 10 µM [falling, partial curve]. With `CCS(=O)(=O)c1oc(-c2ccc(F)cc2)nc1S(=O)(=O)c1ccc(Br)cc1`, the AC50 was 2 µM [falling, partial curve].

For the origin of these results see PubChem BioAssay AID445 (National Center for Advancing Translational Sciences (NCATS), 2006).
